{
  "sequences": {"note": "The chains behind the UniProt entries cited, without tags or fusion partners.", "UniProt Q13148": "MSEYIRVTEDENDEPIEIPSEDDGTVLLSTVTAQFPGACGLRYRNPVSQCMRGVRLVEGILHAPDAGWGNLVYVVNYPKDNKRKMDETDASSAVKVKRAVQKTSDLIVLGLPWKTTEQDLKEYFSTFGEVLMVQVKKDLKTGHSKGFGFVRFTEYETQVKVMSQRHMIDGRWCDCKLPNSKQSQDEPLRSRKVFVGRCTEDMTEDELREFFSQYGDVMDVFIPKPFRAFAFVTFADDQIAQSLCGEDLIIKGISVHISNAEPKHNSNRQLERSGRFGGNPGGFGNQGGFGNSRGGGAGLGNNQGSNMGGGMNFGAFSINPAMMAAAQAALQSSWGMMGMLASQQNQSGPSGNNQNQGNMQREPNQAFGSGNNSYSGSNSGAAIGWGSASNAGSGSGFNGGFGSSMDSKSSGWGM", "UniProt Q921F2": "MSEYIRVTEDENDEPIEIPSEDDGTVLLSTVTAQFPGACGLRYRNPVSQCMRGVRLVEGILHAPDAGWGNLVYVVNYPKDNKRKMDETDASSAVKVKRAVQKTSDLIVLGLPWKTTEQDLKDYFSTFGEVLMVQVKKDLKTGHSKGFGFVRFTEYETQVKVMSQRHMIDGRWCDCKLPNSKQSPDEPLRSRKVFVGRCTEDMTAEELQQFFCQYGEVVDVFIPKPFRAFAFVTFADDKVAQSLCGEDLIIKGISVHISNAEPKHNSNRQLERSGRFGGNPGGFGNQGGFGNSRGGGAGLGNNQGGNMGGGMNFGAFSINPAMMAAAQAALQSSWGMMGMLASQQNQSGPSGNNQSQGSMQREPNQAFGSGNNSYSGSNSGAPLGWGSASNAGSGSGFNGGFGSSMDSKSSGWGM"},
  "source": "paper PMC6223059",
  "key": {"[1]": {"target": "T1, Flag-mZnf179 (Flag-tagged mouse Znf179) (mouse) (UniProt Q96DY5)", "T1 sequence": "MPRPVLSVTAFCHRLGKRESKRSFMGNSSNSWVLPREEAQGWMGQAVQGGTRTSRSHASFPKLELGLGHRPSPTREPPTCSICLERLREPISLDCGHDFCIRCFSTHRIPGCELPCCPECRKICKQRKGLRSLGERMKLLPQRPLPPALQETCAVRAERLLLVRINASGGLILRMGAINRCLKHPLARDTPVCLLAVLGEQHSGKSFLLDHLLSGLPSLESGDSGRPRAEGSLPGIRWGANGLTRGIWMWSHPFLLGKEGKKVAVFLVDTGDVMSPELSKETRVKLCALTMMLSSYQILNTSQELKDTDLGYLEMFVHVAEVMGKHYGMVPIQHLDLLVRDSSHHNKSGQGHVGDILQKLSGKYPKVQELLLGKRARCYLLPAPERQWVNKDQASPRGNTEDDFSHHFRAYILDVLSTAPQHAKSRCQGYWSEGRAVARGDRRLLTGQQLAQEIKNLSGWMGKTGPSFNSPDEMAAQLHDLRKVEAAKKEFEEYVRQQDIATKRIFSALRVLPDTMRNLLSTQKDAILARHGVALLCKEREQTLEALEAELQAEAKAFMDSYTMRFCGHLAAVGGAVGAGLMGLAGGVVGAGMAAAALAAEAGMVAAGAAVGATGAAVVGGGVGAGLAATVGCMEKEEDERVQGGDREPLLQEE", "test": "co-IP; lysates of 293 T cells transfected with Flag-mZnf179 (48 h) or N2a cells stably expressing GFP-mZnf179, treated with 10 uM MG132 for 4 h; lysis buffer 50 mM Tris-HCl pH 7.8, 150 mM NaCl, 0.1% Nonidet P-40, 0.5% Triton X-100; IP with anti-TDP-43 or anti-Znf179 antibodies (Catch and Release IP Kit), 2 h at 4 °C; blot with anti-TDP-43 and anti-Znf179"}, "[2]": {"target": "T2, GFP-mZnf179 (GFP-tagged mouse Znf179) (mouse) (UniProt Q96DY5)", "T2 sequence": "T1 sequence", "test": "co-IP; lysates of 293 T cells transfected with Flag-mZnf179 (48 h) or N2a cells stably expressing GFP-mZnf179, treated with 10 uM MG132 for 4 h; lysis buffer 50 mM Tris-HCl pH 7.8, 150 mM NaCl, 0.1% Nonidet P-40, 0.5% Triton X-100; IP with anti-TDP-43 or anti-Znf179 antibodies (Catch and Release IP Kit), 2 h at 4 °C; blot with anti-TDP-43 and anti-Znf179"}, "[3]": {"target": "T3, endogenous Znf179 (mouse brain) (mouse (endogenous in mouse brain)) (UniProt Q96DY5)", "T3 sequence": "T1 sequence", "test": "co-IP; total brain lysates of wild-type or Znf179-knockout mice; IP with anti-TDP-43 or anti-Znf179 antibodies (Catch and Release IP Kit), 2 h at 4 °C; blot with anti-Znf179 and anti-TDP-43"}},
  "note": "These are yes or no findings as the source states them, for the method shown. Binding seen in cells or lysates may run through a third protein. Some binding calls cover weakened binding; strength is not graded here. For part of these data: Tags and fused reporters may be left off the sequences shown.",
  "data": [
    {"substance": "endogenous TDP-43 (293 T cells) (from UniProt Q13148 1-414)", "values": [
      {"measurement": "binding", "setting": "[1]", "value": "binds"}
    ]},
    {"substance": "endogenous TDP-43 (N2a cells) (from UniProt Q921F2 1-414)", "values": [
      {"measurement": "binding", "setting": "[2]", "value": "binds"}
    ]},
    {"substance": "endogenous TDP-43 (mouse brain) (from UniProt Q921F2 1-414)", "values": [
      {"measurement": "binding", "setting": "[3]", "value": "binds"}
    ]}
  ]
}
